Measurements taken from patent US20200332015A1.
No constants are given. Whether binding was seen depends on the method and setting. Some results given as binding are weak or reduced against the parent protein; the word gives no strength.

Chains of the proteins cited; added tags and fusions are not shown. Lines headed by an entry give the natural chain unless they say otherwise; changes in a name come on top.
UniProt Q07011: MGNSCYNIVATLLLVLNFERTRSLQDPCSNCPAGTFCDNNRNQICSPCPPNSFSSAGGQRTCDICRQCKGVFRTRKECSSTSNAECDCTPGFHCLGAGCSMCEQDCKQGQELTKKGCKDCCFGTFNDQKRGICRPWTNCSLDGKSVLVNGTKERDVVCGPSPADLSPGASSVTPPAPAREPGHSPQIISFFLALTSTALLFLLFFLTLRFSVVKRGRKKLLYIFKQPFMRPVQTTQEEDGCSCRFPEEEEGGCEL

Key:
[1] = molecular target: human CD137 (antigen of the competition ELISA of Example 7 and of the epitope binning of Example 8) (human) (UniProt Q07011); assay: SPR epitope binning, sandwich setup: CD137 captured on immobilized PRO885, PRO951 injected as second binder (22.5 nM)
[2] = molecular target: human CD137 (antigen of the competition ELISA of Example 7 and of the epitope binning of Example 8) (human) (UniProt Q07011); assay: SPR epitope binning, CD137 captured by immobilized PRO885
[3] = molecular target: human CD137 (antigen of the competition ELISA of Example 7 and of the epitope binning of Example 8) (human) (UniProt Q07011); assay: SPR epitope binning (MASS-1), 22.5 nM second antibody
[4] = molecular target: human CD137 (antigen of the competition ELISA of Example 7 and of the epitope binning of Example 8) (human) (UniProt Q07011); assay: SPR (MASS-1): PRO951 immobilized on the chip, CD137 (90 nM) injected and captured
[5] = molecular target: human CD137 (antigen of the competition ELISA of Example 7 and of the epitope binning of Example 8) (human) (UniProt Q07011); assay: SPR epitope binning, PRO951 immobilized
[6] = molecular target: human CD137 (antigen of the competition ELISA of Example 7 and of the epitope binning of Example 8) (human) (UniProt Q07011); assay: SPR epitope binning (MASS-1), CD137 captured by PRO951
[7] = molecular target: human CD137 (antigen of the competition ELISA of Example 7 and of the epitope binning of Example 8) (human) (UniProt Q07011); assay: SPR (MASS-1): PRO885 immobilized on the chip, CD137 (90 nM) injected and captured
[8] = molecular target: human CD137 (antigen of the competition ELISA of Example 7 and of the epitope binning of Example 8) (human) (UniProt Q07011); assay: SPR epitope binning, sandwich setup: CD137 captured on immobilized PRO951, PRO885 injected as second binder (22.5 nM)
[9] = molecular target: human CD137 (antigen of the competition ELISA of Example 7 and of the epitope binning of Example 8) (human) (UniProt Q07011); assay: SPR epitope binning, PRO885 immobilized
[10] = molecular target: human CD137 (antigen of the competition ELISA of Example 7 and of the epitope binning of Example 8) (human) (UniProt Q07011); assay: SPR epitope binning, CD137 captured by immobilized PRO951

Measured: binding

B1: PRO951 (38-27-C05 sc02 scDb-i/33-03-G02 sc01 scDb-o) (bispecific antibody)
chain: DIQMTQSPSSLSASVGDRVTITCQASQSINDYLAWYQQKPGKAPKLLIYKASTLASGVPSRFSGSGSGTDFTLTISSLQPEDFATYYCQQGYIITDIDNVFGTGTKVTVLGGGGGSEVQLVESGGGLVQPGGSLRLSCAASGFSFNNDYDMCWVRQAPGKGLEWIGCIDTGDGSTYYASWAKGRFTISRDNSKNTVYLQMNSLRAEDTAVYYCAREAASSSGYGMGYFDLWGQGTLVTVSSGGGGSGGGGSGGGGSGGGGSIQMTQSPSSLSASVGDRVTITCQSSQSVYDNNWLAWYQQKPGKAPKLLIYRASNLASGVPSRFSGSGSGTDFTLTISSLQPEDFATYYCQGTYLSSNWYWAFGTGTKVTVLGGGGGSQVQLQESGPGLVKPSETLSLTCKVSGFSFSSGYDMCWIRQPPGKGLEWIGCVVAGSVDITYYASWAKGRVTISVDSSKNQFSLKLSSVTAADTAVYYCARKDAYSDAFNLWGQGTLVTVSS
binds: [1] | [2] | [3] | [4] | [5]

B2: PRO885 (38-02-A04 sc01 scDb-i/33-03-G02 sc01 scDb-o) (bispecific antibody)
chain: DIQMTQSPSSLSASVGDRVTITCQASQSINDYLAWYQQKPGKAPKLLIYKASTLASGVPSRFSGSGSGTDFTLTISSLQPEDFATYYCQQGYIITDIDNVFGTGTKVTVLGGGGGSQVQLQESGPGLVKPSETLSLTCKVSGFSFSNSYWICWIRQPPGKGLEWIGCTFVGSSDSTYYANWAKGRVTISVDSSKNQFSLKLSSVTAADTAVYYCARHPSDAVYGYANNLWGQGTLVTVSSGGGGSGGGGSGGGGSGGGGSIQMTQSPSSLSASVGDRVTITCQASQSINNVLAWYQQKPGKAPKLLIYRASTLASGVPSRFSGSGSGTDFTLTISSLQPEDFATYYCQSSYGNYGDFGTGTKVTVLGGGGGSQVQLQESGPGLVKPSETLSLTCKVSGFSFSSGYDMCWIRQPPGKGLEWIGCVVAGSVDITYYASWAKGRVTISVDSSKNQFSLKLSSVTAADTAVYYCARKDAYSDAFNLWGQGTLVTVSS
binds: [6] | [7] | [8] | [9] | [10]
